Experimental findings from PMC7850899, “Nutrient transceptors physically interact with the yeast S6/protein kinase B homolog, Sch9, a TOR kinase target” (Biochemical Journal, 2021) are described below.

What all share (assay): split reporter; BiFC with split Citrine on genomically tagged proteins in living S. cerevisiae, confocal microscopy; cells starved for the transceptor's substrate (nitrogen 24 h, phosphate 72 h, sulfate 48 h); Gnp1 and Mup3 strains also in exponential growth
Assay [1] addresses T1, Gnp1 tagged with the N-terminal half of Citrine (GNP1-N-Citrine) (S. cerevisiae (endogenous gene, tagged)) (UniProt P48813).
T1 sequence: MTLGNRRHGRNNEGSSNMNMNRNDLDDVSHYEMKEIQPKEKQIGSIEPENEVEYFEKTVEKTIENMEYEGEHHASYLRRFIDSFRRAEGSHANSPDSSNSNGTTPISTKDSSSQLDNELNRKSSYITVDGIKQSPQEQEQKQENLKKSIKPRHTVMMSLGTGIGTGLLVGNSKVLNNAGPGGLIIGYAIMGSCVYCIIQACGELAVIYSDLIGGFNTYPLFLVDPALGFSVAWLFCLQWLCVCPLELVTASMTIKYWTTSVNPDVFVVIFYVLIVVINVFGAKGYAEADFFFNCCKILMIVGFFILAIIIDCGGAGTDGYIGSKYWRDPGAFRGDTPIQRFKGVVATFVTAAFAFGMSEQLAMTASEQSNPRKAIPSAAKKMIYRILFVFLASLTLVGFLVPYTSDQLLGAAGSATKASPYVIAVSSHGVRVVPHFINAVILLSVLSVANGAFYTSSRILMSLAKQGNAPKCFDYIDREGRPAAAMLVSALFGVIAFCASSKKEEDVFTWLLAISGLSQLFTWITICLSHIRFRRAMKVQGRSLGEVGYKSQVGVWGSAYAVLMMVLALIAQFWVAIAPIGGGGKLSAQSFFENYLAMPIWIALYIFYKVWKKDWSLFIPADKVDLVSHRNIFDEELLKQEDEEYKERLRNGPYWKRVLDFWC

Assay [2] addresses T2, Gap1 tagged with the N-terminal half of Citrine (GAP1-N-Citrine) (S. cerevisiae (endogenous gene, tagged)) (UniProt P19145).
T2 sequence: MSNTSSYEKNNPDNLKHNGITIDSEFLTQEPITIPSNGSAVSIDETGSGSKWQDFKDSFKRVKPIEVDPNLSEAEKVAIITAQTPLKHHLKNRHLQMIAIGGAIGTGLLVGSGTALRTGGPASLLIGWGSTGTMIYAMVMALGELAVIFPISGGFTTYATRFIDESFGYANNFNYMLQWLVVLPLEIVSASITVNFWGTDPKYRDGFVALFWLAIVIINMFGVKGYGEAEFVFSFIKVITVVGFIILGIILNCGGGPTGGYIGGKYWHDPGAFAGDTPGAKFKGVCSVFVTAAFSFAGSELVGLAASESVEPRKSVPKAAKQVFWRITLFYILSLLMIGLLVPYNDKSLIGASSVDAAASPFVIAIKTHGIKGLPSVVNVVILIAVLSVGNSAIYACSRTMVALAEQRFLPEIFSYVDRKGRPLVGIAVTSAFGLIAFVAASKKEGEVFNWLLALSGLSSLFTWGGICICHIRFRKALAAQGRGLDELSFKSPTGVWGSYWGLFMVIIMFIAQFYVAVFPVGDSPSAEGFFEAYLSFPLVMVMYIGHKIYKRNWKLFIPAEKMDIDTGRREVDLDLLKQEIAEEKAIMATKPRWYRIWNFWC

The target in assay [3] is T3, Pho84 tagged with the N-terminal half of Citrine (PHO84-N-Citrine) (S. cerevisiae (endogenous gene, tagged)) (UniProt P25297).
T3 sequence: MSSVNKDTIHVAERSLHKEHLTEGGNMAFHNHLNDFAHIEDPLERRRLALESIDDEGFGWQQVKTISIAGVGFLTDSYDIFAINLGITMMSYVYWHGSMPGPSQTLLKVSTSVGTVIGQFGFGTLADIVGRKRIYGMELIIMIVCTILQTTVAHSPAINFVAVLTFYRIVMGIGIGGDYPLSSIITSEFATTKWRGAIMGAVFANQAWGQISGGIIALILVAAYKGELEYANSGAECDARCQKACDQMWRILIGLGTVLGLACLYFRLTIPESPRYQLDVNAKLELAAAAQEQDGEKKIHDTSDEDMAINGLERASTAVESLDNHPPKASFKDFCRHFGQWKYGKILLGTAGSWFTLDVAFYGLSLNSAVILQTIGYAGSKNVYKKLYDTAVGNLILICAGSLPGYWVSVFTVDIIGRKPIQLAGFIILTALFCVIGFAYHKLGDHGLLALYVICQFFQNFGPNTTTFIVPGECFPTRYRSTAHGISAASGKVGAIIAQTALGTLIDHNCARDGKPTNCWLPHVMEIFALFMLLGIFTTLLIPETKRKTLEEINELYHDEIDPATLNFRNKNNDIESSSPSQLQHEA

No constants are given. Whether binding was seen depends on the method and setting. Binding seen in cells or lysates may run through a third protein. Some binding calls cover weakened binding; strength is not graded here. Sequences can lack the tags named with a protein.

B1: Sch9 tagged with the C-terminal half of Citrine (SCH9-C-Citrine) (enzyme, UniProt P11792 1-824)
chain: MMNFFTSKSSNQDTGFSSQHQHPNGQNNGNNNSSTAGNDNGYPCKLVSSGPCASSNNGALFTNFTLQTATPTTAISQDLYAMGTTGITSENALFQMKSMNNGISSVNNNNSNTPTIITTSQEETNAGNVHGDTGGNSLQNSEDDNFSSSSTTKCLLSSTSSLSINQREAAAAAYGPDTDIPRGKLEVTIIEARDLVTRSKDSQPYVVCTFESSEFISNGPESLGAINNNNNNNNNNQHNQNQHINNNNENTNPDAASQHHNNNSGWNGSQLPSIKEHLKKKPLYTHRSSSQLDQLNSCSSVTDPSKRSSNSSSGSSNGPKNDSSHPIWHHKTTFDVLGSHSELDISVYDAAHDHMFLGQVRLYPMIHNLAHASQHQWHSLKPRVIDEVVSGDILIKWTYKQTKKRHYGPQDFEVLRLLGKGTFGQVYQVKKKDTQRIYAMKVLSKKVIVKKNEIAHTIGERNILVTTASKSSPFIVGLKFSFQTPTDLYLVTDYMSGGELFWHLQKEGRFSEDRAKFYIAELVLALEHLHDNDIVYRDLKPENILLDANGNIALCDFGLSKADLKDRTNTFCGTTEYLAPELLLDETGYTKMVDFWSLGVLIFEMCCGWSPFFAENNQKMYQKIAFGKVKFPRDVLSQEGRSFVKGLLNRNPKHRLGAIDDGRELRAHPFFADIDWEALKQKKIPPPFKPHLVSETDTSNFDPEFTTASTSYMNKHQPMMTATPLSPAMQAKFAGFTFVDESAIDEHVNNNRKFLQNSYFMEPGSFIPGNPNLPPDEDVIDDDGDEDINDGFNQEKNMNNSHSQMDFDGDQHMDDEFVSGRFEI
Turning to B1, the binding result was “no binding” in assay [1], “binds” in assay [2] and “binds” in assay [3].
